# Laboratory results published in publication PMC8384837.
# Residue numbers refer to the chain shown, from its start. This is one part of the list. For part of these data: At the low end of the ranking the order means little. For part of these data: The source does not settle which construct or isoform was used.
# Columns and labels:
# Conditions in all cases: yeast three-hybrid, YBZ-1, SC-Leu-His + 0.5 mM 3-AT, 4 days
# [1] = target: T1, PUM1 PUF domain R1-QFR R2-VFQ R7-NPG S863Q + R864F + Q867R + N899V + Y900F + S1079N + N1080P + E1083G (UniProt Q14671)
# T1 sequence: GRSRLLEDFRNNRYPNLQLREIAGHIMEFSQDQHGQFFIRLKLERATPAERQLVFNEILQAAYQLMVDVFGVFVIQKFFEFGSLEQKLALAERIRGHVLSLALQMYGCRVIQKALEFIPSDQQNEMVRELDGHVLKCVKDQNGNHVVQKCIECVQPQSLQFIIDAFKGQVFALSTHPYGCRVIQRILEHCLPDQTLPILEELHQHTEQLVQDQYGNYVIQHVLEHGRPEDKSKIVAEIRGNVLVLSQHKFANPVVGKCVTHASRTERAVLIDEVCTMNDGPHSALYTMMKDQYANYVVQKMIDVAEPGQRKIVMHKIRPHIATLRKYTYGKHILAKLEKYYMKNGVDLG
# [2] = target: T2, PUM1 PUF domain R2-VFQ R3-THE R4-TFR N899V + Y900F + C935T + R936H + Q939E + N971T + H972F + Q975R (UniProt Q14671)
# T2 sequence: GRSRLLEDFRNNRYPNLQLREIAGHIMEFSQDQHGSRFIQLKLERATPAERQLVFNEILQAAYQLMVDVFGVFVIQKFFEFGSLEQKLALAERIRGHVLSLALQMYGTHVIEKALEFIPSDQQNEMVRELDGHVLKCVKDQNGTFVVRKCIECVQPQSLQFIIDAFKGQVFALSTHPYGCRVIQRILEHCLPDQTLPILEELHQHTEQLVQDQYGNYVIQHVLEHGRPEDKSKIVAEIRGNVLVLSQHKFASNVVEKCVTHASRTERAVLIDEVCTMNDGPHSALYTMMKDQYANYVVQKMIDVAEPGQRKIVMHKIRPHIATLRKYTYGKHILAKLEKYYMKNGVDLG
# [3] = target: T3, PUM1 PUF domain R5-PHQ R6-SWD C1007P + R1008H + N1043S + Y1044W + Q1047D (UniProt Q14671)
# T3 sequence: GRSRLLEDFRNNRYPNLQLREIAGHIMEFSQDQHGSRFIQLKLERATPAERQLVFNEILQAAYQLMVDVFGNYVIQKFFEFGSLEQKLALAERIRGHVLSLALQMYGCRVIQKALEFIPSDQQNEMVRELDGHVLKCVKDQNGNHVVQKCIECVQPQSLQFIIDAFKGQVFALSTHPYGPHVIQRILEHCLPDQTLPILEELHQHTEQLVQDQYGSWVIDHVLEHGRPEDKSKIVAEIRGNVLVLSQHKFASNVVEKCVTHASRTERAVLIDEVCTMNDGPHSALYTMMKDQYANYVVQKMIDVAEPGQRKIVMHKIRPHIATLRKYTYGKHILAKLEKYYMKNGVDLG
# [4] = target: T4, PUM1 PUF domain R7-ASR S1079A + N1080S + E1083R (Homo sapiens) (UniProt Q14671)
# T4 sequence: T1 sequence with Q36S, F37R, R40Q, V72N, F73Y, N252A, P253S, G256R
# [5] = target: T5, PUM1 PUF domain R7-ATR S1079A + N1080T + E1083R (UniProt Q14671)
# T5 sequence: T1 sequence with Q36S, F37R, R40Q, V72N, F73Y, N252A, P253T, G256R
# [6] = target: T6, PUM1 PUF domain R7-AVR S1079A + N1080V + E1083R (Homo sapiens) (UniProt Q14671)
# T6 sequence: T1 sequence with Q36S, F37R, R40Q, V72N, F73Y, N252A, P253V, G256R
# [7] = target: T7, PUM1 PUF domain R7-CSR S1079C + N1080S + E1083R (Homo sapiens) (UniProt Q14671)
# T7 sequence: T1 sequence with Q36S, F37R, R40Q, V72N, F73Y, N252C, P253S, G256R
# [8] = target: T8, PUM1 PUF domain R7-CTR S1079C + N1080T + E1083R (Homo sapiens) (UniProt Q14671)
# T8 sequence: T1 sequence with Q36S, F37R, R40Q, V72N, F73Y, N252C, P253T, G256R
# [9] = target: T9, PUM1 PUF domain R7-DHV S1079D + N1080H + E1083V (Homo sapiens) (UniProt Q14671)
# T9 sequence: T1 sequence with Q36S, F37R, R40Q, V72N, F73Y, N252D, P253H, G256V
# [10] = target: T10, PUM1 PUF domain R7-DNV S1079D + E1083V (UniProt Q14671)
# T10 sequence: T3 sequence with P180C, H181R, S216N, W217Y, D220Q, S252D, E256V
# [11] = target: T11, PUM1 PUF domain R7-DYV S1079D + N1080Y + E1083V (UniProt Q14671)
# T11 sequence: T1 sequence with Q36S, F37R, R40Q, V72N, F73Y, N252D, P253Y, G256V
# [12] = target: T12, PUM1 PUF domain R7-EPG S1079E + N1080P + E1083G (Homo sapiens) (UniProt Q14671)
# T12 sequence: T1 sequence with Q36S, F37R, R40Q, V72N, F73Y, N252E
# [13] = target: T13, PUM1 PUF domain R7-GCD S1079G + N1080C + E1083D (UniProt Q14671)
# T13 sequence: T1 sequence with Q36S, F37R, R40Q, V72N, F73Y, N252G, P253C, G256D
# [14] = target: T14, PUM1 PUF domain R7-GCG S1079G + N1080C + E1083G (Homo sapiens) (UniProt Q14671)
# T14 sequence: T1 sequence with Q36S, F37R, R40Q, V72N, F73Y, N252G, P253C
# [15] = target: T15, PUM1 PUF domain R7-GCL S1079G + N1080C + E1083L (Homo sapiens) (UniProt Q14671)
# T15 sequence: T1 sequence with Q36S, F37R, R40Q, V72N, F73Y, N252G, P253C, G256L
# [16] = target: T16, PUM1 PUF domain R7-GGK S1079G + N1080G + E1083K (Homo sapiens) (UniProt Q14671)
# T16 sequence: T1 sequence with Q36S, F37R, R40Q, V72N, F73Y, N252G, P253G, G256K
# [17] = target: T17, PUM1 PUF domain R7-GGN S1079G + N1080G + E1083N (UniProt Q14671)
# T17 sequence: T1 sequence with Q36S, F37R, R40Q, V72N, F73Y, N252G, P253G, G256N
# [18] = target: T18, PUM1 PUF domain R7-GGR S1079G + N1080G + E1083R (Homo sapiens) (UniProt Q14671)
# T18 sequence: T1 sequence with Q36S, F37R, R40Q, V72N, F73Y, N252G, P253G, G256R
# [19] = target: T19, PUM1 PUF domain R7-GIR S1079G + N1080I + E1083R (Homo sapiens) (UniProt Q14671)
# T19 sequence: T1 sequence with Q36S, F37R, R40Q, V72N, F73Y, N252G, P253I, G256R
# [20] = target: T20, PUM1 PUF domain R7-GIV S1079G + N1080I + E1083V (UniProt Q14671)
# T20 sequence: T1 sequence with Q36S, F37R, R40Q, V72N, F73Y, N252G, P253I, G256V
# [21] = target: T21, PUM1 PUF domain R7-GQR S1079G + N1080Q + E1083R (Homo sapiens) (UniProt Q14671)
# T21 sequence: T1 sequence with Q36S, F37R, R40Q, V72N, F73Y, N252G, P253Q, G256R
# [22] = target: T22, PUM1 PUF domain R7-GRL S1079G + N1080R + E1083L (Homo sapiens) (UniProt Q14671)
# T22 sequence: T1 sequence with Q36S, F37R, R40Q, V72N, F73Y, N252G, P253R, G256L
# [23] = target: T23, PUM1 PUF domain R7-GRV S1079G + N1080R + E1083V (Homo sapiens) (UniProt Q14671)
# T23 sequence: T1 sequence with Q36S, F37R, R40Q, V72N, F73Y, N252G, P253R, G256V
# [24] = target: T24, PUM1 PUF domain R7-GSK S1079G + N1080S + E1083K (Homo sapiens) (UniProt Q14671)
# T24 sequence: T1 sequence with Q36S, F37R, R40Q, V72N, F73Y, N252G, P253S, G256K
sequence,measurement,setting,value
GGCUAGAACUAGUGGAUCCCCCGGCGCCCGGCGGCUCGAGCCCGGGUAAGUCUAAAUAGUCUGCAUGCCGCCGGGCGCCAUGCCUGCAGGUCGACUCUAGAAAACAUG,binding signal (log2 enrichment (interaction score)),[1],< -5.93
same,binding signal (log2 enrichment (interaction score)),[2],-5.59
same,binding signal (log2 enrichment (interaction score)),[3],< -7
same,binding signal (log2 enrichment (interaction score)),[4],-5.06
same,binding signal (log2 enrichment (interaction score)),[5],< -8.73
same,binding signal (log2 enrichment (interaction score)),[6],-3.29
same,binding signal (log2 enrichment (interaction score)),[7],-4.91
same,binding signal (log2 enrichment (interaction score)),[8],-6.35
same,binding signal (log2 enrichment (interaction score)),[9],-4.6
same,binding signal (log2 enrichment (interaction score)),[10],< -8.33
same,binding signal (log2 enrichment (interaction score)),[11],-6.65
same,binding signal (log2 enrichment (interaction score)),[12],-5.84
same,binding signal (log2 enrichment (interaction score)),[13],< -9.24
same,binding signal (log2 enrichment (interaction score)),[14],-6.06
same,binding signal (log2 enrichment (interaction score)),[15],-4.56
same,binding signal (log2 enrichment (interaction score)),[16],-3.65
same,binding signal (log2 enrichment (interaction score)),[17],< -8.23
same,binding signal (log2 enrichment (interaction score)),[18],-3
same,binding signal (log2 enrichment (interaction score)),[19],-2.6
same,binding signal (log2 enrichment (interaction score)),[20],< -9.02
same,binding signal (log2 enrichment (interaction score)),[21],-2.83
same,binding signal (log2 enrichment (interaction score)),[22],-3.79
same,binding signal (log2 enrichment (interaction score)),[23],-2.73
same,binding signal (log2 enrichment (interaction score)),[24],-0.57

# Some of the entries so far, with tabs.
sequence	measurement	setting	value
GGCUAGAACUAGUGGAUCCCCCGGCGCCCGGCGGCUCGAGCCCGGGUAAGUCUAAAUAGUCUGCAUGCCGCCGGGCGCCAUGCCUGCAGGUCGACUCUAGAAAACAUG	binding signal (log2 enrichment (interaction score))	[18]	-3
same	binding signal (log2 enrichment (interaction score))	[19]	-2.6
